Reference: article PMC10074116
These are yes or no findings as the source states them, for the method shown. Binding seen in cells or lysates may run through a third protein. Some binding calls cover weakened binding; strength is not graded here.

Chains of the proteins cited; added tags and fusions are not shown.
UniProt P35637: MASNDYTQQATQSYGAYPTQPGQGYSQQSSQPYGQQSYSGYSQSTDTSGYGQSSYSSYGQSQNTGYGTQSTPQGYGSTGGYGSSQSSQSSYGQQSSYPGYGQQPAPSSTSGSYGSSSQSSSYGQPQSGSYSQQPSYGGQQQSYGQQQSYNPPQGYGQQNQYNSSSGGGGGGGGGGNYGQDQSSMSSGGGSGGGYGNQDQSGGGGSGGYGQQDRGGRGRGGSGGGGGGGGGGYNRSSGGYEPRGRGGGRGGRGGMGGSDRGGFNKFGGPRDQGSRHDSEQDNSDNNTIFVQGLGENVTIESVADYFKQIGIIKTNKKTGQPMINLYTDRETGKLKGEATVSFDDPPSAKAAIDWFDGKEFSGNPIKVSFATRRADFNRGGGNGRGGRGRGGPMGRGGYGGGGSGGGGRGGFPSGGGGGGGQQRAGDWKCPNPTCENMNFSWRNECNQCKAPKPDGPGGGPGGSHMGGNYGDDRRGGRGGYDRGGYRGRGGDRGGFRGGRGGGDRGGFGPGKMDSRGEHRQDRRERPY

Biological target: fused in sarcoma (FUS) (human (endogenous in MDA-MB-231 and MDA-MB-468)) (UniProt P35637)
Test: co-IP; lysates (20 mM Tris pH 7.5, 150 mM NaCl, 1% Triton X-100, 1 mM PMSF) of MDA231 and MDA468 cells in hypoxic conditions; primary antibody 2 h, protein A/G beads overnight at 4 °C, Western blot; for FUS and LAMP1: MDA468 cells with circTBC1D14 overexpression or knockdown, pretreated with …

Substance: P62 (from UniProt Q13501 1-440)
- binding: binds
